Measured values from patent US8106218B2, “Pharmaceutical compounds” (Neuroscienze Pharmaness S.C. A R.L., priority 2004, dated 2012).
At least one structure is not confirmed: it was looked up by name or label, or the drawing left a doubt.

Key:
[1] = test system: rat; settings: i.p., up to 120 min
Experimental: The rectal temperature in the rat was determined by an electronic thermometer inserted at a 2 mm depth. The measurements were carried out on rats acclimated for one hour. […]
Each test was repeated on ten animals; the reported results are the average of the results obtained with the ten animals.

[2] = test system: rat; test: Hypothermia test in vivo, antagonism of the hypothermia induced by WIN 55,212-2; settings: compound i.p. 30 min before WIN 55,212-2 (3 mg/kg)

| SMILES | effect on body temperature (hypothermia) of the compound alone, in words [1] | antagonist activity towards the hypothermia induced by WIN 55,212-2, in words [2] |
| --- | --- | --- |
| O=C(NN1CCCC1)c1nn(-c2ccc(Cl)cc2Cl)c2c1CCc1sc(Cl)cc1-2 [Example 3.5, N-pyrrolidinyl-7-chloro-1-(2′,4′-dichlorophenyl)-4,5-dihydro-1H-thieno[2,3-g]indazol-3-carboxamide] | With no dose employed a reduction of the body temperature | no variation of the body temperature with respect to the treatment with only WIN 55,212-2 |
| O=C(NN1CCCCCC1)c1nn(-c2ccc(Cl)cc2Cl)c2c1CCc1sc(Cl)cc1-2 [Example 3.6, N-homopiperidinyl-7-chloro-1-(2′,4′-dichlorophenyl)-4,5-dihydro-1H-thieno[2,3-g]indazol-3-carboxamide] | With none of the doses employed a reduction of the body temperature | no variation of the body temperature with respect to the treatment with the only WIN 55,212-2 |
| Cc1cc2c(s1)CCc1c(C(=O)NN3CCCCC3)nn(-c3ccc(Cl)cc3Cl)c1-2 [Example 3.9, N-piperidinyl-7-methyl-1-(2′,4′-dichlorophenyl)-4,5-dihydro-1H-thieno[2,3-g]indazol-3-carboxamide] | With none of the doses employed a reduction of the body temperature | no variation of the body temperature with respect to the treatment with the only WIN 55,212-2 |
